{"sequences": {"note": "Chains of the proteins cited; added tags and fusions are not shown. Residues count along the entry.", "UniProt P15187, residues 1-296": "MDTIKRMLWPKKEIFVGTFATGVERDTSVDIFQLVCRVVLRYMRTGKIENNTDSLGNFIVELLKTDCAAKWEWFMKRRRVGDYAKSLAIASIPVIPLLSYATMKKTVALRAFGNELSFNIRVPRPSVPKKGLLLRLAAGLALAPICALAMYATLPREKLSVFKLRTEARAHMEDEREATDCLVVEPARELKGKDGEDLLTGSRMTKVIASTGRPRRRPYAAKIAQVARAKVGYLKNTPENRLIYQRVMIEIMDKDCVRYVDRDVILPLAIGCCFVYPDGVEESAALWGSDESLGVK", "UniProt Q9SVZ9": "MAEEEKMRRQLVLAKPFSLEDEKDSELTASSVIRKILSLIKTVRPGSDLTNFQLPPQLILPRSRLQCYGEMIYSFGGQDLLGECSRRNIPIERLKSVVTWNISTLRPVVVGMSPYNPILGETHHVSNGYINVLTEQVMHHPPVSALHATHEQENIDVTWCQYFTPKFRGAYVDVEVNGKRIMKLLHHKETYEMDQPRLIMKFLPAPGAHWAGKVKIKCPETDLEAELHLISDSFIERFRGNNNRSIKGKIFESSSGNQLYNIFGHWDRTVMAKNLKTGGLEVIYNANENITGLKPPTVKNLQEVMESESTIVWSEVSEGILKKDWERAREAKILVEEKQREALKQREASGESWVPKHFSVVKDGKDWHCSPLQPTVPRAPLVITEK", "UniProt P35843": "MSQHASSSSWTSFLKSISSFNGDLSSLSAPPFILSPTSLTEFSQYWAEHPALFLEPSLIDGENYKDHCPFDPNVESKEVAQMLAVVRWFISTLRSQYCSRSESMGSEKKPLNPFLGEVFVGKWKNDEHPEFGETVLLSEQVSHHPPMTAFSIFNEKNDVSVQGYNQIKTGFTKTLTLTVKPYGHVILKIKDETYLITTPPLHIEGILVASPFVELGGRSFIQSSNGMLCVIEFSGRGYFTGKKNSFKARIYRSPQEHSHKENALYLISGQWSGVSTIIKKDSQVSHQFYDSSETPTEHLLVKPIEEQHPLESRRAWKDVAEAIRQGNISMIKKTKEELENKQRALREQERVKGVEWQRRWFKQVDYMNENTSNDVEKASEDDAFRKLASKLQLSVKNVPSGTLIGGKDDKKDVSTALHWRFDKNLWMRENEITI", "UniProt Q9SR33": "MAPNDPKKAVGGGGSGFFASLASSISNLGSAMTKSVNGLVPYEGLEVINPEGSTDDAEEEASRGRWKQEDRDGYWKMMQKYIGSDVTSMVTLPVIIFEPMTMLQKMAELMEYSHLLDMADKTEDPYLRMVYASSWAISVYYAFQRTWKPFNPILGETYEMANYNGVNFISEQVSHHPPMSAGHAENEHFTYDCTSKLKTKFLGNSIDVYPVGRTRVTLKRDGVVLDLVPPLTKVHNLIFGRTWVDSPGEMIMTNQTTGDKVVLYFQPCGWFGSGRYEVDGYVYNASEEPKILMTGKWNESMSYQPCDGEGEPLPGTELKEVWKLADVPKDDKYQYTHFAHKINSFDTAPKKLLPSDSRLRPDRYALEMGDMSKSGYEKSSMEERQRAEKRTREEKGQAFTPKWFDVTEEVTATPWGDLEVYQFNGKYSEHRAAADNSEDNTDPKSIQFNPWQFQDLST", "UniProt Q9SW00": "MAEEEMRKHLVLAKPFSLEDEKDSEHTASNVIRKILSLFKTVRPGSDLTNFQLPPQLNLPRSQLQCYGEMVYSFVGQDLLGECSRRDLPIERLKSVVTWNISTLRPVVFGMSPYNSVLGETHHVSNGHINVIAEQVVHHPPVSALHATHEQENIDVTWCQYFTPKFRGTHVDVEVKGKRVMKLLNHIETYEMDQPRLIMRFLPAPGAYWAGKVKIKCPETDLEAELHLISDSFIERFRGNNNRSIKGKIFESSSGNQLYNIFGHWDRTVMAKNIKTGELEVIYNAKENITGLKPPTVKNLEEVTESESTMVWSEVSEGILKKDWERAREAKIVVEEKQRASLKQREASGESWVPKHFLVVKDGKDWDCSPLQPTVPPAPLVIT"}, "source": "paper PMC4199759", "note": "No constants are given. Whether binding was seen depends on the method and setting. In cells and extracts the contact can be indirect. Some binding calls cover weakened binding; strength is not graded here. For some of these results: Sequences can lack the tags named with a protein.", "data": [{"target": "FLAG-tagged tombusvirus p33 replication protein (plasmid pGBK-Flag33-CUP1/DI72-GAL1) (not stated (tombusvirus)) (UniProt P15187)", "experiment": "co-IP", "values": [{"molecule": "Osh7p, chromosomally expressed, 6xHA-tagged (protein, UniProt P38755 1-437) MALNKLKNIPSLTNSSHSSINGIASNAANSKPSGADTDDIDENDESGQSILLNIISQLKPGCDLSRITLPTFILEKKSMLERITNQLQFPDVLLEAHSNKDGLQRFVKVVAWYLAGWHIGPRAVKKPLNPILGEHFTAYWDLPNKQQAFYIAEQTSHHPPESAYFYMIPESNIRVDGVVVPKSKFLGNSSAAMMEGLTVLQFLDIKDANGKPEKYTLSQPNVYARGILFGKMRIELGDHMVIMGPKYQVDIEFKTKGFISGTYDAIEGTIKDYDGKEYYQISGKWNDIMYIKDLREKSSKKTVLFDTHQHFPLAPKVRPLEEQGEYESRRLWKKVTDALAVRDHEVATEEKFQIENRQRELAKKRAEDGVEFHSKLFRRAEPGEDLDYYIYKHIPEGTDKHEEQIRSILETAPILPGQTFTEKFSIPAYKKHGIQKN", "binding": "binds"}, {"molecule": "Osh6p, chromosomally expressed, 6xHA-tagged (protein, UniProt Q02201 1-448) MGSKKLTVGSDSHRLSKSSFSSNKSSHSATKDQPIDTDDIDEDDESGHNIILNIISQLRPGCDLTRITLPTFILEKKSMLERVTNQLQFPEFLLQAHSEKDPLKRFLYVMKWYLAGWHIAPKAVKKPLNPVLGEYFTAYWDLPNKQQAYYISEQTSHHPPECAYFYMIPESSIRVDGVVIPKSRFLGNSSAAMMDGSTVLQFLDIKDGNGKPEKYVLTQPNVYVRGILFGKMRIELGDHMIIKSPNFQADIEFKTKGYVFGTYDAIEGTVKDYDGNAYYEISGKWNDVMYLKDLKQPRSSPKVFLDTHKESPLRPKVRPLSEQGEYESRKLWKKVTDALAVRNHPVATEEKFQIEDHQRQLAKKRIEDGVEFHPKLFRRSKPGEDLDYCIYKNIPVDEDPEKQIRSILQIAPILPGQQFTDKFFIPAFEKIKSQKKMIENEKQNPAKQ", "binding": "binds"}, {"molecule": "Scs2p VAP protein, chromosomally expressed, 6xHA-tagged (protein, UniProt P40075 1-244) MSAVEISPDVLVYKSPLTEQSTEYASISNNSDQTIAFKVKTTAPKFYCVRPNAAVVAPGETIQVQVIFLGLTEEPAADFKCRDKFLVITLPSPYDLNGKAVADVWSDLEAEFKQQAISKKIKVKYLISPDVHPAQNQNIQENKETVEPVVQDSEPKEVPAVVNEKEVPAEPETQPPVQVKKEEVPPVVQKTVPHENEKQTSNSTPAPQNQIKEAATVPAENESSSMGIFILVALLILVLGWFYR", "binding": "binds"}]}, {"target": "FLAG-tagged CNV p33 replication protein (plasmid pESC/DI72/Flag33) (Cucumber necrosis virus (CNV)) (UniProt P15187)", "experiment": "co-IP", "values": [{"molecule": "His6-tagged Arabidopsis ORP3C expressed in yeast (protein, UniProt Q93Y40 1-457) MGSPKKNENKGFFAAMTSGFSMFGTAVSRSVNGVQGNEGVEVINPEGGKEDAEEEAQKGRWKDEERDSYWKMMQKYIGSDITSMVTLPVVIFEPMTMLQKMAEIMEYSHLLDQADECEDPYLRLVYASSWAISVYYAFQRTWKPFNPILGETYEMVNHGGISFISEQVSHHPPMSAGHAENEHFIYDITSKLKTKLLGNSVDVYPVGRTRVTLKKDGVVLDLVPPLTKIHNLIFGRTWVDSPGEMVMTNLTTGDKVVLYFQPCGWFGSGRYEVDGYVYSAAEEPKIMMTGKWNEKMSYQPCDAEGEPLPGTELKEVWHLADVPKNDNFQYTHFAHKINSFDTAPAKLLASDSRIRPDRYSLEQGDLSKAGSEKHSLEERQRAEKRTRETKGQKFTPRWFDLTDEITPTPWGDIEVYQYNGKYNEHRDTAESSSSASNETDLKSIEFNPWQYGNISTE", "binding": "binds"}, {"molecule": "His6-tagged Arabidopsis ORP4C expressed in yeast (protein, UniProt Q9LVD4 1-379) MKKHVMLVKPFSLEDEKDSENTPPNLIQRILSLFKNVRPGSDLTNFQLPPQMNLARSQLQCYGEIVYSFDGHDLLGECSRRDKPIERMKAMVTWYISTLRPLIFGLAPYNPVIGETHHVSNGHINVLAEQISHHPPVSALHATHEKENVDVLLCQYFTPKFRGAYVDVEVKGKRVVKLLNHKETYEMNQPKLLMTFLPAMGAHWAGKIVIKCPETGLGAELQLLSDSFLSRFTGNNKRAIKGKIFESSSRKQLYEISGHWDRTVTAKNTKTGQLEVIYKASENIAKLKTPIVENLQEVSESESAVVWGEVSEGIVTNNWEKAREAKRDVEEKQRESLRKRKASGQSWIPKHFSVARTGKDWDCVPLQPTVPRAPIVVPL", "binding": "binds"}, {"molecule": "His6-tagged Arabidopsis ORP3A expressed in yeast (protein, UniProt Q9LZM1 1-453) MASNDPKNGGGFFASLASSITNFGSAMSKSVNGLMGYEGLEVINPEGSTDDAEEEAGRGRWKQEERDGYWKMMQKYIGSDVTSMVTLPVIIFEPMTMLQKMAELMEYSYLLDMADKTEDPYMRMVYASSWAISVYYAYQRTWKPFNPILGETYEMTNHNGINFIAEQVCHHPPMSAGHAENEHFAYDCTSKLKTKFLGNSIDVYPVGRTRVTLKRDGVVLDLVPPLTKVHNLIFGRTWVDSPGEMVMTNLTTGDKVVLYFQPCGWFGSGRYEVDGYVYNSAEEPKMLMTGKWNESLSYQPCDAEGEPLPGTELKEVWKVAEAPKNDKYQYTHFAHKINSFDTAPKKLLSSDSRLRPDRYALEMGDMSKSGFEKSSLEDRQRAEKKSREEKGQKFAPKWFDETEEVTPTPWGDLEVYQFNGKYSVHRATAENSEDTTDVKLTQFNPWQFQDLSA", "binding": "binds"}, {"molecule": "His6-tagged Osh6p expressed in yeast (protein, UniProt Q02201 1-448) MGSKKLTVGSDSHRLSKSSFSSNKSSHSATKDQPIDTDDIDEDDESGHNIILNIISQLRPGCDLTRITLPTFILEKKSMLERVTNQLQFPEFLLQAHSEKDPLKRFLYVMKWYLAGWHIAPKAVKKPLNPVLGEYFTAYWDLPNKQQAYYISEQTSHHPPECAYFYMIPESSIRVDGVVIPKSRFLGNSSAAMMDGSTVLQFLDIKDGNGKPEKYVLTQPNVYVRGILFGKMRIELGDHMIIKSPNFQADIEFKTKGYVFGTYDAIEGTVKDYDGNAYYEISGKWNDVMYLKDLKQPRSSPKVFLDTHKESPLRPKVRPLSEQGEYESRKLWKKVTDALAVRNHPVATEEKFQIEDHQRQLAKKRIEDGVEFHPKLFRRSKPGEDLDYCIYKNIPVDEDPEKQIRSILQIAPILPGQQFTDKFFIPAFEKIKSQKKMIENEKQNPAKQ", "binding": "binds"}, {"molecule": "His6-tagged Osh3p expressed in yeast (protein, UniProt P38713 1-996) METIDIQNRSFVVRWVKCGRGDVINYQIKPLKKSIEVGIYKKLKSSVDDHASAVHIAPDTKTLLDYTTKSLLHKGSSSNIEEHHRRSSQHSHSSSNGSDNKRKERSYSSLSISGIQQQSQEIPLREKLSASGFTLVKRVGNVSGNTMVQGDLEVKDTDYYYAFILDNSSSKNAKKKILFNASVINGDNQSMISTRSTPPARPTALSRTSTQQDMLFRVGQGRYLQGYLLKKRRKRLQGFKKRFFTLDFRYGTLSYYLNDHNQTCRGEIVISLSSVSANKKDKIIIIDSGMEVWVLKATTKENWQSWVDALQTCFDDQFEDKDTSTLEENPDILDDDKEVINKSSPQDHDHLTPTATTKSALSHRQHTQKDMDDIYVPLPSESYATFSMNLRLIQQRLEQCKKDSLSYKPTTLHQRSEGLNGTHSSSSVFTNNRVSSFNHSSSGMTSSDSLASEEVPSNKTYIEHALYNQLADLEVFVSRFVTQGEVLFKDHQILCKKAKDTRVSLTSYLSENDEFFDAEEEISRGVIILPDTEDDINNIVEETPLLGKSDQNEFTKEVQLSGSEQIASSSVESYTTNDENHSRKHLKNRHKNRRRGHPHHQKTKSAQSSTETFTSKDLFALSYPKSVTRRNDIPEAAASPPSLLSFLRKNVGKDLSSIAMPVTSNEPISILQLISETFEYAPLLTKATQRPDPITFVSAFAISFLSIYRDKTRTLRKPFNPLLAETFELIREDMGFRLISEKVSHRPPVFAFFAEHLDWECSYTVTPSQKFWGKSIELNNEGILRLKFKTTGELFEWTQPTTILKNLIAGERYMEPVNEFEVHSSKGDKSHILFDKAGMFSGRSEGFKVSIIPPPSSNRKKETLAGKWTQSLANETTHETIWEVGDLVSNPKKKYGFTKFTANLNEITEIEKGNLPPTDSRLRPDIRAYEEGNVDKAEEWKLKLEQLQRERRNKGQDVEPKYFEKVSKNEWKYITGPKSYWERRKKHDWSDISQLW", "binding": "binds"}]}, {"target": "T1, nYFP-AtPVA12 VAP protein (Arabidopsis thaliana) (UniProt Q9SHC8)", "T1 sequence": "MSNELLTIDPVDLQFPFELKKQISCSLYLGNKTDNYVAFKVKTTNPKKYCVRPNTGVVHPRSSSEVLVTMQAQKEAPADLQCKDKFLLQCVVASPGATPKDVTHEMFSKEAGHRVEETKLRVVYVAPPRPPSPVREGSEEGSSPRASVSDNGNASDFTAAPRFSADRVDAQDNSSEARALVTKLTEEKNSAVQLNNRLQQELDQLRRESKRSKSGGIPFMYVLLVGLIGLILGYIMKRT", "experiment": "split reporter; BiFC in N. benthamiana leaves, nYFP and cYFP fusions from the 35S promoter, 48 h after agro-infiltration; confocal laser imaging", "values": [{"molecule": "AtOrp3A-cYFP protein (protein, UniProt Q9LZM1 1-453) MASNDPKNGGGFFASLASSITNFGSAMSKSVNGLMGYEGLEVINPEGSTDDAEEEAGRGRWKQEERDGYWKMMQKYIGSDVTSMVTLPVIIFEPMTMLQKMAELMEYSYLLDMADKTEDPYMRMVYASSWAISVYYAYQRTWKPFNPILGETYEMTNHNGINFIAEQVCHHPPMSAGHAENEHFAYDCTSKLKTKFLGNSIDVYPVGRTRVTLKRDGVVLDLVPPLTKVHNLIFGRTWVDSPGEMVMTNLTTGDKVVLYFQPCGWFGSGRYEVDGYVYNSAEEPKMLMTGKWNESLSYQPCDAEGEPLPGTELKEVWKVAEAPKNDKYQYTHFAHKINSFDTAPKKLLSSDSRLRPDRYALEMGDMSKSGFEKSSLEDRQRAEKKSREEKGQKFAPKWFDETEEVTPTPWGDLEVYQFNGKYSVHRATAENSEDTTDVKLTQFNPWQFQDLSA", "binding": "binds"}]}, {"target": "FLAG-tagged CNV p33 replication protein (plasmid pESC/DI72/Flag33) (Cucumber necrosis virus (CNV)) (UniProt P15187)", "experiment": "co-IP", "remark": "another data set of the same source", "values": [{"molecule": "His6-tagged Arabidopsis ORP4A expressed in yeast (from UniProt Q9SVZ9 1-386)", "binding": "binds"}, {"molecule": "His6-tagged Osh5p expressed in yeast (from UniProt P35843 1-434)", "binding": "binds"}, {"molecule": "His6-tagged Arabidopsis ORP3B expressed in yeast (from UniProt Q9SR33 1-458)", "binding": "binds"}, {"molecule": "His6-tagged Arabidopsis ORP4B expressed in yeast (from UniProt Q9SW00 1-383)", "binding": "binds"}]}]}
